No constants are given. Whether binding was seen depends on the method and setting. Some results given as binding are weak or reduced against the parent protein; the word gives no strength.
Legend:
[1] = molecular target: T1, ALK-2 endogenous in PAE/Chim A cells (porcine), E9M2M1; test: 125I-activin A cross-linking followed by immunoprecipitation, PAE/Chim A cells; details: remark: other sources report otherwise
T1 chain: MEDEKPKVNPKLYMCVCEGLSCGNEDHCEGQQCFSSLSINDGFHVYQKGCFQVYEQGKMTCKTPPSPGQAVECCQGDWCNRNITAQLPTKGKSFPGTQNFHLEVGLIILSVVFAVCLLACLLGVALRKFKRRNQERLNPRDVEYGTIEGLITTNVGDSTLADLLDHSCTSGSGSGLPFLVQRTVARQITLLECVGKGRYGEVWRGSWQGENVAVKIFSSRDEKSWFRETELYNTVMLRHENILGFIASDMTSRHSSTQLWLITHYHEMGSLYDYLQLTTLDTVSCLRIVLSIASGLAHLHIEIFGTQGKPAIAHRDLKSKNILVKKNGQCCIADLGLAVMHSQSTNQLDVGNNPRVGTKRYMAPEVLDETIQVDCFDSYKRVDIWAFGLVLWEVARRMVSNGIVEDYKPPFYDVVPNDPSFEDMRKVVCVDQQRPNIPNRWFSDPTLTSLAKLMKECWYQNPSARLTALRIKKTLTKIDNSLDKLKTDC

[2] = molecular target: T2, ALK-2 (activin receptor like kinase 2), human (human), Q04771; test: affinity cross-linking followed by immunoprecipitation, COS-1 cells co-transfected with ActR-II and the ALK; details: remark: other sources report otherwise
T2 chain: T1 chain

B1: Recombinant human activin A, P08476 311-426 (ligand, UniProt P08476 311-426, looked up)
chain: GLECDGKVNICCKKQFFVSFKDIGWNDWIIAPSGYHANYCEGECPSHIAGTSGSSLSFHSTVINHYRMRGHSPFANLKSCCVPTKLRPMSMLYYDDGQNIIKKDIQNMIVEECGCS
modifications: here or on the partner: 125I-iodinated (chloramine T method)
Q: What does the source list for B1?
A: binding [1]: binds; binding [2]: binds
